# According to PubChem BioAssay AID504648 (National Center for Advancing Translational Sciences (NCATS), 2011):
# In all, about 390,000 compounds went through this assay and about 610 (0.16%) were called active. Inconclusive results, whose numbers are uncertain, are shown with a selection of clear calls. Calls come from the whole dose curve; as a rule, active = well fitted inhibition curve with a large enough effect; inconclusive = small, poorly fitted or top-dose-only effect, or effect the other way, or another doubt; inactive = no such curve, though single readings can be large or run the other way. Potencies of inconclusive entries are doubtful fits and often do not repeat.
# Experiment: Nrf2 qHTS screen for inhibitors: counterscreen for cytotoxicity
# Conditions: A549 ARE-Fluc cells, CellTiter-Fluor viability, 18-24 h; series mostly up to 46 µM
# Summary of the method: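 A549 ARE-Fluc cells in 5% FBS OPTI-MEM, 5000 cells/well, rested 2 h then exposed to compounds in concentration-response for 18-24 h at 37 °C. Viability by CellTiter-Fluor fluorescence (Ex 405/Em 525) after 30 min; luciferase luminescence (BugLite, 15 min, RT) read afterwards.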
# Potency is the fitted concentration of half-maximal effect.
row,SMILES,Potency
1,COC(=O)C1=C(C(=O)OC)[C@@H]2N(C)c3ccccc3[C@@]23C[C@@H](C(=O)OC)N(C(=O)c2cccs2)C3=N1,inactive
2,COc1ccc2c(c1)C(SCC(=O)NCCc1ccc(Cl)cc1)CC(C)(C)O2 (configuration not stated),"inconclusive: 4.61 µM [activator, partial curve, poor fit]"
3,COc1ccc(C2c3c4c(n(C)c3CCN2C)CCN(C)C4c2ccc(OC)cc2)cc1 (configuration not stated),"inconclusive: 8.2 µM [falling, partial curve]"
4,O=c1cc(-c2ccccc2)[nH]n1-c1ccc([N+](=O)[O-])cc1,"inconclusive: 18.4 µM [falling, single point]"
5,CCCCS(=O)(=O)c1oc(-c2ccc(F)cc2)nc1S(=O)(=O)c1ccccc1,"inconclusive: 29.1 µM [falling, single point]"
6,Cc1c(C(=O)NC2CCC(C)CC2)oc2ccccc12 (configuration not stated),inactive
7,Fc1ccc(-c2cc(C(F)(F)F)nc(NCc3ccccc3)n2)cc1,"inconclusive: 1.84 µM [activator, full curve, poor fit]"
8,O=[N+]([O-])c1ccc(C[n+]2cccc3c4ccccc4ccc32)cc1,"inconclusive: 8.2 µM [falling, partial curve]"
9,Cc1ccc(C)c(S(=O)(=O)NCCc2csc(-c3ccc(Cl)cc3)n2)c1,inactive
10,N#CC1(NC(=O)COC(=O)c2cc(O)c3ccccc3c2O)CCCCC1,"inconclusive: 13 µM [falling, partial curve, poor fit]"
11,Cn1c(=O)c2ccccc2n2c(CCl)nnc12,"inconclusive: 25.9 µM [falling, single point]"
12,COC(=O)[C@]1(Cc2ccccc2)N[C@H](CN(C)C(=O)Nc2ccc(C(F)(F)F)cc2)[C@@H]2C(=O)N(Cc3ccccc3)C(=O)[C@@H]21,"inconclusive: 32.6 µM [falling, partial curve, poor fit]"
13,CCCC(=O)N1CCN(c2ccc(NC(=O)c3ccc(N4CCCC4)c([N+](=O)[O-])c3)cc2Cl)CC1,inactive
14,C(=C\c1nc(N2CCCC2)c2ccccc2n1)/c1ccccc1,"inconclusive: 29.1 µM [falling, single point]"
15,Cc1ccc(N(CC(=O)Nc2cc(C)cc(C)c2)S(=O)(=O)c2c(C)noc2C)cc1,"inconclusive: 18.4 µM [falling, single point]"
16,CC(NC(=O)CSc1ncnc2nc[nH]c12)c1ccccc1 (configuration not stated),"inconclusive: 4.11 µM [activator, single point]"
17,COc1ccccc1OCC(=O)Nc1ccc(S(=O)(=O)Nc2onc(C)c2C)cc1,"inconclusive: 4.61 µM [falling, partial curve, poor fit]"
18,Nc1nonc1-n1nnc(C(=O)N/N=C/c2ccc(OCc3ccccc3)cc2)c1COc1ccc(F)cc1,"inconclusive: 25.9 µM [falling, single point]"
19,O=C(N/N=C1\C/C(=N\NC(=O)c2ccncc2)c2ccccc21)c1ccncc1,"inconclusive: 8.2 µM [falling, partial curve]"
20,COc1cccc(/C=N/NC(=O)CNC(=O)c2ccc(S(=O)(=O)N3CCOCC3)cc2)c1OC,"inconclusive: 29.1 µM [falling, single point]"
21,Fc1ccc(COc2ccc(Br)cc2CNCC2CCCO2)cc1 (configuration not stated),"inconclusive: 16.4 µM [falling, single point]"

row,SMILES,Potency
1,CCOc1ccc2nc(NC(=O)CS(=O)(=O)c3ccc(C)cc3)sc2c1,"inconclusive: 29.1 µM [falling, single point]"
2,COc1cc(Cl)c(NC2=CC(=O)C(=O)c3ccccc32)c(OC)c1,"inconclusive: 29.1 µM [falling, single point]"
3,CCOC(=O)C1=C(C)NC(C)=C(C(=O)OCC)C1C(=O)OCC(=O)NCCc1ccccc1,"inconclusive: 20.6 µM [falling, partial curve]"
4,COc1ccc(-c2nc3ccccc3s2)cc1NC(=O)COc1cccc(C)c1,"inconclusive: 29.1 µM [falling, single point]"
5,CC(C)CNC(C)C(=O)Nc1ccc(S(N)(=O)=O)cc1 (configuration not stated),inactive
6,O=C(Cn1c(SCc2ccccc2F)nc2cccnc21)Nc1ccc(F)c(Cl)c1,"inconclusive: 16.4 µM [falling, partial curve, poor fit]"
7,CC(C)N(C(=O)[C@H]1C[C@H](CC(=O)NCCC2=CCCCC2)C(=O)N2CCc3c([nH]c4ccc(Cl)cc34)[C@]12C)C(C)C,"inconclusive: 29.1 µM [falling, single point]"
8,Cc1c(/C=N\NC(=O)c2cc3ccccc3o2)c2ccccc2n1C,"inconclusive: 7.31 µM [falling, partial curve, poor fit]"
9,O=C(NCc1ccc(F)cc1)c1cnn2ccccc12,"inconclusive: 1.46 µM [activator, full curve, poor fit]"
10,O=C(NCc1cccnc1)/C(=C\c1ccc(-c2ccc(Br)cc2)o1)S(=O)(=O)c1ccccc1,"inconclusive: 16.4 µM [falling, single point]"
11,COC(=O)c1sc2nc3c(c(-c4cccs4)c2c1N)CCCC3,"inconclusive: 10.3 µM [activator, partial curve, poor fit]"
12,Cc1ccc(C)c(NC(=S)N=Nc2c(O)n(C)c3ccc(S(=O)(=O)N4CCOCC4)cc23)c1,"inconclusive: 7.31 µM [falling, partial curve]"
13,CCOC(=O)c1c(C)oc2c1c(/C=N/c1ccccn1)c(O)c1ccccc12,inactive
14,Cc1oc(-c2cccc(Cl)c2)nc1CSCC(=O)NCc1ccccc1Cl,"inconclusive: 32.6 µM [falling, partial curve, poor fit]"
15,O=C(Nc1ccccc1)Nc1nc(-c2ccccc2)cs1,"inconclusive: 11.6 µM [falling, partial curve, poor fit]"
16,N#Cc1ccc(CSc2nnc(-c3ccc(Br)cc3)o2)cc1,inactive
17,CCOC(=O)CSc1nc(-c2ccccc2)nc2ccc(F)cc12,"inconclusive: 25.9 µM [activator, partial curve, poor fit]"
18,C=CCN(CC=C)CC(O)Cn1c2ccccc2c2ccccc21 (configuration not stated),"inconclusive: 29.1 µM [falling, single point]"
19,Cc1cc([N+](=O)[O-])ccc1NCc1cccc2ccccc12,"inconclusive: 20.6 µM [falling, partial curve, poor fit]"
20,C=CCn1c(O)c(N=NC(=S)Nc2ccccc2F)c2cc(S(=O)(=O)N3CCOCC3)ccc21,"inconclusive: 20.6 µM [falling, partial curve]"
21,Cc1ccc(C(=O)Nc2ccc(Br)cc2)cc1S(=O)(=O)NCc1ccccc1,"inconclusive: 23.1 µM [falling, partial curve, poor fit]"

row,SMILES,Potency
1,COc1ccc(C2=Nn3c(nnc3-c3ccccc3OC)SC2)cc1OC1CCCC1,"inconclusive: 23.1 µM [falling, partial curve, poor fit]"
2,CCCCN(C(=O)CSc1nnc(-c2ccc(Cl)cc2)o1)c1c(N)n(CC(C)C)c(=O)[nH]c1=O,"inconclusive: 20.6 µM [falling, single point]"
3,COc1ccc(NC(=O)c2ccc(COCC(F)(F)C(F)F)cc2)cc1OC,inactive
4,O=c1oc2c(CN3CCCC3)c(O)ccc2cc1-c1ccccc1,"inconclusive: 23.1 µM [activator, single point]"
5,O=C(COC(=O)c1cnccn1)c1ccc(OC(=O)c2ccccc2)cc1,"inconclusive: 4.61 µM [falling, partial curve, poor fit]"
6,O=c1c2ccccc2c(C=Nc2cccc(S(=O)(=O)NC3=NCCCCC3)c2)c(O)n1Cc1ccccc1,"inconclusive: 16.4 µM [falling, partial curve, poor fit]"
7,CCn1c(CN2CCN(CCO)CC2)nc2ccccc21,"inconclusive: 0.92 µM [activator, full curve, poor fit]"
8,CC(C)c1ccc(NC(=O)Nc2csc3c2CCCC3)cc1,"inconclusive: 29.1 µM [falling, partial curve, poor fit]"
9,COC(=O)c1ccc(C)c(NS(=O)(=O)c2ccc3c(c2)OCCO3)c1,"inconclusive: 3.26 µM [falling, partial curve, poor fit]"
10,CCCn1nc([N+](=O)[O-])c(C(C#N)c2nc3ccccc3s2)c(Cl)c1=O (configuration not stated),active: 13 µM
11,CC(C)C(=O)N1CCN(c2ccc(NC(=O)c3cccs3)cc2Cl)CC1,inactive
12,CCOc1cccc(NC(=O)C2CC(=O)N(C)C(=Nc3ccc(F)cc3)S2)c1 (configuration not stated),inactive
13,Cc1cc(-c2ccc(C(C)C)c(S(=O)(=O)N3CCC(C)CC3)c2)on1,inactive
14,O=C1CSC(=S)N1/N=C/c1c(F)cccc1F,inactive
15,O=C(CCCN1C(=O)/C(=C\c2ccccc2)SC1=S)Nc1ccc(O)cc1,"inconclusive: 20.6 µM [falling, single point]"
16,Cc1cc(C)nc(SCC(=O)Nc2ccnc3ccccc23)n1,"inconclusive: 20.6 µM [falling, partial curve, poor fit]"
17,Cc1ccc2cccc(SCC(=O)NCc3ccco3)c2n1,inactive
18,COc1ccc2[nH]c(C)c(CCN(Cc3cccs3)C(=S)Nc3cccc(F)c3)c2c1,"inconclusive: 29.1 µM [falling, partial curve, poor fit]"
19,COc1cc2c(C#N)c(N3CCOCC3)nc(N)c2c(N)n1,"inconclusive: 25.9 µM [falling, single point]"
20,Cc1cccc(N=C2NC(=O)/C(=C/C=C/c3ccco3)S2)c1C,"inconclusive: 18.4 µM [falling, partial curve, poor fit]"

# Pulled one by one from the entries so far (two):
row,SMILES,Potency
19,COc1cc2c(C#N)c(N3CCOCC3)nc(N)c2c(N)n1,"inconclusive: 25.9 µM [falling, single point]"
2,CCCCN(C(=O)CSc1nnc(-c2ccc(Cl)cc2)o1)c1c(N)n(CC(C)C)c(=O)[nH]c1=O,"inconclusive: 20.6 µM [falling, single point]"
